Values of other authors, collected in patent EP1079826B1, “USE OF INDIGOID BISINDOLE DERIVATIVES FOR THE MANUFACTURE OF A MEDICAMENT TO INHIBIT CYCLIN DEPENDENT KINASES” (CNRS, Centre National de la Recherche Scientifique, priority 1998, dated 1999).

Experiments:
[1] = tested on: PKG; details: Table 1, known inhibitors; cited from earlier work
[2] = tested on: PKC; details: Table 1, known inhibitors; cited from earlier work

CC[C@H](CO)Nc1nc(NCc2ccccc2)c2ncn(C(C)C)c2n1 (racemic) [Roscovitine, roscovitine]
IC50 [1]: > 1000 µM
IC50 [2]: > 100 µM
